Values from PubChem BioAssay AID1259254 (NCATS, 2017).

Screen: 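Gene knock-downs that lead to re-replication, shown by excess G2 DNA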 (primary screen)
System: human HCT116 colorectal cancer cells
Knock-down reagent: single siRNA against human genes
Time to read-out: 3 days
Detection: 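Nuclei stained with Hoechst and imaged; cell-cycle phase assigned by DNA content; G2 share scaled per plate, non-targeting siRNA 0%, GMNN siRNA 100%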
Direction: G2 robust z-score: higher = more G2 cells, more excess DNA replication
Active means: 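An siRNA counts as active if its G2 robust z-score lies at least 5 MADs above the screen median; here such calls match roughly 38% of GMNN control or more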
The deposit covers about 59,000 reagents; this is a part drawn at random. In the full data, about 1,550 (2.6%) are marked active. 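G2 share is only a proxy for re-replication; each gene was hit by three separate siRNAs, and active genes were retested.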 Unmarked entries are inactive. Reagents against one gene are numbered here. Not all columns of the deposit are shown. Reagent sequences are not shown. Not given: the amount of reagent.

| Target gene | reagent no. | G2 robust z-score |
| --- | --- | --- |
| KRIT1 (KRIT1 ankyrin repeat containing) | 1 | 0.732 |
| KRIT1 (KRIT1 ankyrin repeat containing) | 2 | 2.89 |
| KRIT1 (KRIT1 ankyrin repeat containing) | 3 | 0.0645 |
| SIGLEC8 (sialic acid binding Ig like lectin 8) | 1 | 0.603 |
| SIGLEC8 (sialic acid binding Ig like lectin 8) | 2 | -0.887 |
| SIGLEC8 (sialic acid binding Ig like lectin 8) | 3 | 0.0601 |
| AADACL2 (arylacetamide deacetylase like 2) | 1 | -1.09 |
| AADACL2 (arylacetamide deacetylase like 2) | 2 | 0.51 |
| AADACL2 (arylacetamide deacetylase like 2) | 3 | 2.4 |
| BRINP3 (BMP/retinoic acid inducible neural specific 3) | 1 | -0.61 |
| BRINP3 (BMP/retinoic acid inducible neural specific 3) | 2 | -0.266 |
| BRINP3 (BMP/retinoic acid inducible neural specific 3) | 3 | -0.0975 |
| NMUR1 (neuromedin U receptor 1) | 1 | -0.888 |
| NMUR1 (neuromedin U receptor 1) | 2 | -0.764 |
| NMUR1 (neuromedin U receptor 1) | 3 | 2.25 |
| RSKR (ribosomal protein S6 kinase related) | 1 | 1.08 |
| RSKR (ribosomal protein S6 kinase related) | 2 | 0.658 |
| RSKR (ribosomal protein S6 kinase related) | 3 | -0.262 |
| RSKR (ribosomal protein S6 kinase related) | 4 | 0.528 |
| RSKR (ribosomal protein S6 kinase related) | 5 | 1.63 |
| RSKR (ribosomal protein S6 kinase related) | 6 | 1.18 |
| TMEM127 (transmembrane protein 127) | 1 | 0.268 |
| TMEM127 (transmembrane protein 127) | 2 | -0.379 |
| TMEM127 (transmembrane protein 127) | 3 | 0.344 |
| TRPM4 | 1 | 1.68 |
| TRPM4 | 2 | -1.13 |
| TRPM4 | 3 | 2 |
| CHGA (chromogranin A) | 1 | -0.262 |
| CHGA (chromogranin A) | 2 | -0.184 |
| CHGA (chromogranin A) | 3 | 0.83 |

Records above whose target name begins with C or c:
| Target gene | reagent no. | G2 robust z-score |
| --- | --- | --- |
| CHGA (chromogranin A) | 1 | -0.262 |
| CHGA (chromogranin A) | 2 | -0.184 |
| CHGA (chromogranin A) | 3 | 0.83 |

The list goes on.
| Target gene | reagent no. | G2 robust z-score |
| --- | --- | --- |
| CRYBA1 (crystallin beta A1) | 1 | 0.712 |
| CRYBA1 (crystallin beta A1) | 2 | -0.105 |
| CRYBA1 (crystallin beta A1) | 3 | -0.884 |
| URAD | 1 | -0.871 |
| URAD | 2 | -0.748 |
| URAD | 3 | 4.22 |
| CHEK2P2 (CHEK2 pseudogene 2) | 1 | 1.04 |
| CHEK2P2 (CHEK2 pseudogene 2) | 2 | -0.335 |
| CHEK2P2 (CHEK2 pseudogene 2) | 3 | 4.14 |
| KCNH2 (potassium voltage-gated channel subfamily H member 2) | 1 | -0.588 |
| KCNH2 (potassium voltage-gated channel subfamily H member 2) | 2 | 0.0909 |
| KCNH2 (potassium voltage-gated channel subfamily H member 2) | 3 | 0.12 |
| HFM1 (helicase for meiosis 1) | 1 | -1.1 |
| HFM1 (helicase for meiosis 1) | 2 | -0.389 |
| HFM1 (helicase for meiosis 1) | 3 | -0.0946 |
| PRKACB (protein kinase cAMP-activated catalytic subunit beta) | 1 | -0.98 |
| PRKACB (protein kinase cAMP-activated catalytic subunit beta) | 2 | -1 |
| PRKACB (protein kinase cAMP-activated catalytic subunit beta) | 3 | 1.91 |
